Experimental data reported in PubChem BioAssay AID624291 (National Center for Advancing Translational Sciences (NCATS), 2012).
The whole screen tested about 350,000 compounds, of which about 220 (0.063%) were called active. Inconclusive means that the source gave no clear call. Such entries were picked first, then a sample of the others. The call rests on the fitted dose curve; in most records, active means well fitted activation curve with a large enough effect; inconclusive means small, poorly fitted or top-dose-only effect; inactive means no such curve, though single readings can be large or run the other way. Where the call is inconclusive, the potency comes from a doubtful curve fit.

experiment: qHTS for Activators of Integrin-Mediated Alleviation for Muscular Dystrophy; settings: alpha7betagal myoblasts, beta-gal FDG fluorescence, 48 h; series mostly up to 38.3 µM; further: nearly all actives have a fitted effect of over 60% in size
How it was run: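 alpha7betagal+/- myoblasts (passage 13, 250/well) treated 48 h at 37C with compounds at 1:260 dilution of DMSO stock. Lysed, then beta-galactosidase activity read as FDG fluorescence (ex 480/em 540) after 30 min, with pre-read for autofluorescence.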
Potency means the concentration at half of the fitted maximal effect.

Potency, inactive:
CNC(=O)C[C@H]1C(=O)N(C2CCCCC2)C[C@@H]1c1ccc(Br)cc1
Cc1ccc(C)c(Nc2nc3c(S(=O)(=O)c4ccccc4)nnn3c3ccccc23)c1
Nc1ccc(-c2nc3ccc(C(=O)O)cc3s2)cc1

Potency, inconclusive:
COc1cc(C(c2c(C)[nH][nH]c2=O)c2c(C)[nH][nH]c2=O)ccc1OS(=O)(=O)c1ccc(C)cc1 5.01 µM [activator, single point]
CC(C)(C)NC(=O)CCCCCCCC(=O)NC(C)(C)C 20 µM [activator, single point]
O=S(=O)(Nc1nc2ccccc2nc1Cl)c1ccc(F)cc1 4.47 µM [activator, single point]
CCOC(=O)c1ccc(NC(=O)c2cccc3c2C(=O)N(CC2CCCO2)C3)cc1 (stereo not drawn) 28.2 µM [activator, single point]
COc1ccc(C(=O)NCC2CCCO2)cc1OC (stereo not drawn) 3.55 µM [activator, single point]
COc1ccc(NC(=O)c2cc3ccccc3o2)cn1 2.82 µM [activator, single point]
O=C(COc1ccc(Br)cc1CO)Nc1ccc(S(=O)(=O)N2CCCCC2)cc1 5.01 µM [activator, single point]
CCC(=O)Nc1ccc2c(c1)ncn2-c1ccccc1C 8.91 µM [activator, single point]
CCc1ccccc1OCC(=O)Nc1ccc2c(c1)OCCO2 28.2 µM [activator, single point]
Cc1ccc(C)c(NCC(=O)c2ccc(Cl)cc2)c1 0.501 µM [activator, partial curve, poor fit]
CCn1ccnc1CN(C)Cc1cn(-c2ccccc2)nc1-c1ccc(OC)cc1F 28.2 µM [activator, single point]
Cc1c(C(=O)N2CCN(c3ccccn3)CC2)oc2c1C(=O)CC(C)(C)C2 10 µM [activator, single point]
Cc1ccc(-n2cc(C(=O)c3ccc(F)cc3)nn2)cc1Cl 5.01 µM [activator, single point]
O=C(Cc1csc(N2CCOCC2)n1)N/N=C/c1ccccc1C(=O)O 3.16 µM [activator, partial curve, poor fit]
Cc1ccsc1-c1n[nH]c(=S)n1CC(C)C 12.6 µM [activator, single point]

Already shown: 2 of the compounds above.
Potency, inconclusive:
COc1ccc(C(=O)NCC2CCCO2)cc1OC (stereo not drawn) 3.55 µM [activator, single point]
COc1ccc(NC(=O)c2cc3ccccc3o2)cn1 2.82 µM [activator, single point]
